This note sets out measurements from paper PMC4259421.

Amino acid sequences for entries named in this document (tags omitted).
UniProt P49792: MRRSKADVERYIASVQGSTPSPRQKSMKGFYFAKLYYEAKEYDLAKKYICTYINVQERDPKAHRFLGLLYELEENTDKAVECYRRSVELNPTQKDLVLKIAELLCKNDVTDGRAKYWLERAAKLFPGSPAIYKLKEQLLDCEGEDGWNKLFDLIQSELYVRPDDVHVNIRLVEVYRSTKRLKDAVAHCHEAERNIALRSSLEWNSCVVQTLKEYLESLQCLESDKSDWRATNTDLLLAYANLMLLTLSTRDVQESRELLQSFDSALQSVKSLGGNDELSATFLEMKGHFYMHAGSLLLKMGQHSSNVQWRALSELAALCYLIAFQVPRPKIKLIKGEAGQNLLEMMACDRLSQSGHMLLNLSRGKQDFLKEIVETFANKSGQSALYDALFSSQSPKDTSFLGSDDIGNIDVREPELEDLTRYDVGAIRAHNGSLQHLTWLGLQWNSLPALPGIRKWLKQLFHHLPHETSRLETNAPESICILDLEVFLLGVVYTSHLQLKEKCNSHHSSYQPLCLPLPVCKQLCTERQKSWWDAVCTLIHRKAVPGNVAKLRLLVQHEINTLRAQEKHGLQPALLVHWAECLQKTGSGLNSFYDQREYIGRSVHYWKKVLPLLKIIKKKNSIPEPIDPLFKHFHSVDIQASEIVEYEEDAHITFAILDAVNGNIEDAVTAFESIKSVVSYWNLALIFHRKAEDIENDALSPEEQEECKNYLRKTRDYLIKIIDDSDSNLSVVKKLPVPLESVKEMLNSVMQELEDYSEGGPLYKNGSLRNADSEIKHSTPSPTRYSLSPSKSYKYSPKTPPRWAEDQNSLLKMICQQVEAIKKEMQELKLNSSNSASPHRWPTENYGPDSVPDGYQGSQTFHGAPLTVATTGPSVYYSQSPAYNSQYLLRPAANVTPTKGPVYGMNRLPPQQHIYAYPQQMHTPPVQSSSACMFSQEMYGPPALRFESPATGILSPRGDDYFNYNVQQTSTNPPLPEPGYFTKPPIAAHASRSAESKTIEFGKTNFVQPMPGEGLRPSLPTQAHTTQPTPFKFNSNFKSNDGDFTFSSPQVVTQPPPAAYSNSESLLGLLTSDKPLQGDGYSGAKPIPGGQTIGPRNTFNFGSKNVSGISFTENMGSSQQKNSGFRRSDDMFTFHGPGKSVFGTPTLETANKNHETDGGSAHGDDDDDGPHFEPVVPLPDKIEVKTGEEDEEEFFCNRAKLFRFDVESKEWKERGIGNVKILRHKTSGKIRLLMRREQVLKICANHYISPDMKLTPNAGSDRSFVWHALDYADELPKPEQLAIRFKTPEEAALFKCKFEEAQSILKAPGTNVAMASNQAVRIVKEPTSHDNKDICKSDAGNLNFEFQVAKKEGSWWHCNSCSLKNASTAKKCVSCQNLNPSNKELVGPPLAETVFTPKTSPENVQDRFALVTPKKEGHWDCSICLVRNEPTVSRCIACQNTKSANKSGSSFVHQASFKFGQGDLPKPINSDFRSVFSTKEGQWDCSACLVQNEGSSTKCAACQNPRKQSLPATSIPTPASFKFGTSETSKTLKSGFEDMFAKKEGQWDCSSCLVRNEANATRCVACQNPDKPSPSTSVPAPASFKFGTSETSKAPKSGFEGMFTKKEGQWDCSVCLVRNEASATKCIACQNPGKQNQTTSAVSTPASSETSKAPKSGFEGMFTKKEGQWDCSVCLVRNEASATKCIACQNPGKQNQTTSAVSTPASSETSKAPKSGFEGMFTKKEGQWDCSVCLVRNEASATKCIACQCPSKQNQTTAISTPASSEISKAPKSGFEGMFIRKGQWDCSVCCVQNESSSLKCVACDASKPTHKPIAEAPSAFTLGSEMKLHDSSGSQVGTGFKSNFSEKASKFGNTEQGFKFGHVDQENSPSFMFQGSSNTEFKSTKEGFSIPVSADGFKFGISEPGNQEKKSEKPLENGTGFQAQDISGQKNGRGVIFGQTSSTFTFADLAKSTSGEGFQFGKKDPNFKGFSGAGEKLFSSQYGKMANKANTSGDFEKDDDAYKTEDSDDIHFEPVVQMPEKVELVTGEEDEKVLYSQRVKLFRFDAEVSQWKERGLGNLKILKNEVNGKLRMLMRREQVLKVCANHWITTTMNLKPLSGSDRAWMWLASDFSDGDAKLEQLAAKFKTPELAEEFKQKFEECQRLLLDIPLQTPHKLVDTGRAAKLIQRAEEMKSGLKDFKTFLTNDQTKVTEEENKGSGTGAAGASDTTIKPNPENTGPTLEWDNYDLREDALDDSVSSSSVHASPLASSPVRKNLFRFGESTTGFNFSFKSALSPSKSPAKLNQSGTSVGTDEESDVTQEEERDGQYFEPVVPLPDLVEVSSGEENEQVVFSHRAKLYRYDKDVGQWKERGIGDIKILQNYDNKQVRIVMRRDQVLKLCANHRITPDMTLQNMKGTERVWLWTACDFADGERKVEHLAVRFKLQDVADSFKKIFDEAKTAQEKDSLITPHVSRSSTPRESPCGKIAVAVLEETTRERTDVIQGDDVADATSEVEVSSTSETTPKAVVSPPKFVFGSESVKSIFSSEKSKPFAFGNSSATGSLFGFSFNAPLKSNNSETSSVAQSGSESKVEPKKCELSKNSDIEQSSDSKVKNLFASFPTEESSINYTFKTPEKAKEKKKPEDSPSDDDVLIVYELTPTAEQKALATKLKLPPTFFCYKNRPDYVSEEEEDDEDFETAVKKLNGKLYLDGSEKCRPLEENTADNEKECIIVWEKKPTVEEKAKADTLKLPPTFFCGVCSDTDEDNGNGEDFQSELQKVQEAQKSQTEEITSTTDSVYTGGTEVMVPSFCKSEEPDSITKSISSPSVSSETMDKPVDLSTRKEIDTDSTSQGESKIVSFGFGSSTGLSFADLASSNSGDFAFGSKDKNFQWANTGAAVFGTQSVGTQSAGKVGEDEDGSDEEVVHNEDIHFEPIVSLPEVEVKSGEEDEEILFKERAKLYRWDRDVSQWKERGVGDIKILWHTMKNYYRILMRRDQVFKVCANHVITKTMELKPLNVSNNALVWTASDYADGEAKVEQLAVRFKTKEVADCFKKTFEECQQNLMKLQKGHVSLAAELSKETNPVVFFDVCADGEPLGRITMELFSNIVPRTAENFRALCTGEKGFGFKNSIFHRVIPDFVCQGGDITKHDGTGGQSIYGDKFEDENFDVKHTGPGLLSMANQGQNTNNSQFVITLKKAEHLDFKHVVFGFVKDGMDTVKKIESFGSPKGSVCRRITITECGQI
UniProt Q14974: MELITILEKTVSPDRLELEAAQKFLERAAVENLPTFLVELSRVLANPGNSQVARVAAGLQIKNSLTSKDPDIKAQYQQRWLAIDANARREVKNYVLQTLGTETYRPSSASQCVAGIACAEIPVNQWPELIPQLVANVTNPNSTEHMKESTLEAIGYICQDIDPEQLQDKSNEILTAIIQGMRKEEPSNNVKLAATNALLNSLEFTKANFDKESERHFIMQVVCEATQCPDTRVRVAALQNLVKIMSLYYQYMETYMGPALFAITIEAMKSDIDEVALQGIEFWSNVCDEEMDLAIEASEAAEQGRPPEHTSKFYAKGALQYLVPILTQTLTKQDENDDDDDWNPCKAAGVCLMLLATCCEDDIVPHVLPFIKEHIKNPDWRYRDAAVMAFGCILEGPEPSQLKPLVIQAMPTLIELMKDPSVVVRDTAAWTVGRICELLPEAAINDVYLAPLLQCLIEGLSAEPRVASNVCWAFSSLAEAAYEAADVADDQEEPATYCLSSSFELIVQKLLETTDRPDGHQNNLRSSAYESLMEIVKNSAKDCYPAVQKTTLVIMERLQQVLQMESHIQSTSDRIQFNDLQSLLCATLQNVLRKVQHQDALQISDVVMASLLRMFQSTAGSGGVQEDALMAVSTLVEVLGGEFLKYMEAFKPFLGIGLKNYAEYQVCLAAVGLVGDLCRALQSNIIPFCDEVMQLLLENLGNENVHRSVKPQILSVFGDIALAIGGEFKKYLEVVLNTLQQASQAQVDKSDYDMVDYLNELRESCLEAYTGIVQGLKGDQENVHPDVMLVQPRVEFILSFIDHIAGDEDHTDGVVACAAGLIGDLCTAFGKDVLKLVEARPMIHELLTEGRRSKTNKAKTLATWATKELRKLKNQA
UniProt Q8N122: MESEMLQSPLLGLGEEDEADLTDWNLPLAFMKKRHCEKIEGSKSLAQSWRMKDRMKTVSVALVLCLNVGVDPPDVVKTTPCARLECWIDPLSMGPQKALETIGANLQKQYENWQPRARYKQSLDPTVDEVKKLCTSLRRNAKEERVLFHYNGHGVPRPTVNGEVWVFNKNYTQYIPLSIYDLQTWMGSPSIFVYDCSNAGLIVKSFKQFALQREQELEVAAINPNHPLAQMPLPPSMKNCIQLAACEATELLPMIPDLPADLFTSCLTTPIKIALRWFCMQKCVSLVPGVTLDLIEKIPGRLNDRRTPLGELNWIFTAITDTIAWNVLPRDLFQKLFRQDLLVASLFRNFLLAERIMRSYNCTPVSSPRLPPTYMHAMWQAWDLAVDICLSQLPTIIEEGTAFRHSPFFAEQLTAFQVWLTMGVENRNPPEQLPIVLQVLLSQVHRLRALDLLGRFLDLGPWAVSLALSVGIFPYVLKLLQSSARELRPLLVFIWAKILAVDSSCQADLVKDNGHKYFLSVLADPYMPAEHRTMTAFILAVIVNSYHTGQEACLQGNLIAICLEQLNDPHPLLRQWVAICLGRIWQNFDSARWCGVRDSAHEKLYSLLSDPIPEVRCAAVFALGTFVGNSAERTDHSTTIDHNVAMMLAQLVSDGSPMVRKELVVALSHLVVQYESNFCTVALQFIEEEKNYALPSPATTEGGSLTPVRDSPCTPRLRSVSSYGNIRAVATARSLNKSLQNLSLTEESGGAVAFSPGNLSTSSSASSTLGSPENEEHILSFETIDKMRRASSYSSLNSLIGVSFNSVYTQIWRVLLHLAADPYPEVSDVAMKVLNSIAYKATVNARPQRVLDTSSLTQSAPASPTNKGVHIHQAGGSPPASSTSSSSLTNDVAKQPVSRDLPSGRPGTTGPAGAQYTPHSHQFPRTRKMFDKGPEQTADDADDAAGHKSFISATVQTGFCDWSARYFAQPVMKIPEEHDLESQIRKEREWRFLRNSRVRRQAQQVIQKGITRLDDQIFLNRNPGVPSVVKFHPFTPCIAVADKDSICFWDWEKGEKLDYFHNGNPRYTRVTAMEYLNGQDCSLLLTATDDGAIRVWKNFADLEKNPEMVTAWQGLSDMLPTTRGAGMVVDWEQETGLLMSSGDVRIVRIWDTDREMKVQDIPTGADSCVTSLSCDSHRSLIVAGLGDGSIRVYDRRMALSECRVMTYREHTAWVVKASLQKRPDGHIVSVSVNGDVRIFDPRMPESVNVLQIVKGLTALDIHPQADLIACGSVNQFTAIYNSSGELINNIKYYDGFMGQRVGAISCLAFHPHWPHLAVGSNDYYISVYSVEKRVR

No constants are given. Whether binding was seen depends on the method and setting. In cells and extracts the contact can be indirect. Some results given as binding are weak or reduced against the parent protein; the word gives no strength.

This assay concerns the target Ran Binding Protein 2 (RanBP2, also known as Nup358) (human (endogenous in MDA-MB-435, MDA-MB-231, HeLa, HEK 293T)) (UniProt P49792). Kind of assay: co-IP; RanBP2 immunoprecipitates from total cellular lysates of actively growing HEK 293T cells lysed in buffer E; immunoblot. For orientation: In western blotting, separated proteins are transferred to a membrane and probed.

Take importin β1 (from UniProt Q14974 1-876): the binding entry is “binds”.
In the case of raptor (from UniProt Q8N122 1-1335) it was “no binding”.
